Laboratory results taken from patent US20170088600A1.
Results are given in words; binding and its absence hold for the method and conditions named. Some results given as binding are weak or reduced against the parent protein; the word gives no strength.

Sequences of proteins named here, by UniProt entry; tags and fusion partners are left off. Residues count along the entry.
UniProt P50592: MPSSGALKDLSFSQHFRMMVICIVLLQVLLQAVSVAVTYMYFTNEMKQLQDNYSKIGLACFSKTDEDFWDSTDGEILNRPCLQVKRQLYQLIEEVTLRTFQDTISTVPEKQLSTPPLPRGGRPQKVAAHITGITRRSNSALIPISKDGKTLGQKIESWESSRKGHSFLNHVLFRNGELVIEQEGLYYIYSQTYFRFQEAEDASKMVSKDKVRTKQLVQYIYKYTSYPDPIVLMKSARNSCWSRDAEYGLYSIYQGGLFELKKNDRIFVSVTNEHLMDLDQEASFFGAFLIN
UniProt O14763, residues 56-210: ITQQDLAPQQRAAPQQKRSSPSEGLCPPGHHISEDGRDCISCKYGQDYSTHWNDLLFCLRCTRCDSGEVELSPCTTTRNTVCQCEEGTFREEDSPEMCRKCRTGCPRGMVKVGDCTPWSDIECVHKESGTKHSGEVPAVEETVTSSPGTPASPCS

Target: mouse TRAIL expressed on transiently transfected 293T cells (mouse) (UniProt P50592)
Experiment: flow cytometry on 293T cells transfected with mouse TRAIL

binding: binds
Substance: human TRAIL-R2:Fc (extracellular domain of human TRAIL-R2 fused to human IgG constant domain), as used in FIG. 9 (from UniProt O14763 56-210) (Fc fusion)
